Assay results published in US20260265321A1, “PEPTIDE AND POLYPEPTIDE INHIBITING THE NF-KB SIGNALING PATHWAY” (Centre National de la Recherche Scientifique, priority 2023, published 2026).
No constants are given. Whether binding was seen depends on the method and setting. For some of these results: Binding seen in cells or lysates may run through a third protein. Some binding calls cover weakened binding; strength is not graded here. Where a sequence is shown, tags or fusion partners need not be part of it.

Amino acid sequences for entries named in this document (tags omitted).
UniProt P25963: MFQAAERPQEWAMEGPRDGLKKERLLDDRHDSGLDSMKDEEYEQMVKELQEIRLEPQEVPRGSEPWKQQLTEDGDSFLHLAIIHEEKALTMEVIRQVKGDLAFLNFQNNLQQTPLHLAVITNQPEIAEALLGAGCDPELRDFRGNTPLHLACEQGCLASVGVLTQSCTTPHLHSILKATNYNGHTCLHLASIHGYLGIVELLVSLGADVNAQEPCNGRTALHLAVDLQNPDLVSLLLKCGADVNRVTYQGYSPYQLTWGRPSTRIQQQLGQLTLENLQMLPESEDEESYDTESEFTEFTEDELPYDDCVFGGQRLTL

Experiments:
[1] = biological target: T1, 6×His-IKKβ(1-669) EE (human) (UniProt O14920); experiment: MBP pulldown, purified proteins
T1 sequence (looked up): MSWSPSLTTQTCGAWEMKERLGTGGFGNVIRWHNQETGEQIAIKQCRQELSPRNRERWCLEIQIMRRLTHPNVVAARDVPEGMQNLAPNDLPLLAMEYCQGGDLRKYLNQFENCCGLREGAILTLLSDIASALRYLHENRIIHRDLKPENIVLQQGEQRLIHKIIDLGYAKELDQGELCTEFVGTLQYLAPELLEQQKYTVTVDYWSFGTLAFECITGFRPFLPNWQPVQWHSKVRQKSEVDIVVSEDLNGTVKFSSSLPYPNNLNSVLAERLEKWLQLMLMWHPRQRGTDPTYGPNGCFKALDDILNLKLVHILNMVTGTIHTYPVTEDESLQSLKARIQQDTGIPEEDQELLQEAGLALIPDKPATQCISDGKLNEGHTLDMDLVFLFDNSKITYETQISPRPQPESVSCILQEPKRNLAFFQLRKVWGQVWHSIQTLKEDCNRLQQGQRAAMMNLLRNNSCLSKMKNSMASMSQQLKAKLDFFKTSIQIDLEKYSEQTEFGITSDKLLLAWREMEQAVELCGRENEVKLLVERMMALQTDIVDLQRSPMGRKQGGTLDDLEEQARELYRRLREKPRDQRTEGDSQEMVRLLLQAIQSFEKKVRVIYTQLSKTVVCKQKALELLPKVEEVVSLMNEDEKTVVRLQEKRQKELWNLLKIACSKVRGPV

[2] = biological target: T2, G1-IKKα, full-length wt IKKα fused to the Gluc1 fragment (human), O15111; experiment: GPCA; settings: remark: other sources report otherwise
T2 chain: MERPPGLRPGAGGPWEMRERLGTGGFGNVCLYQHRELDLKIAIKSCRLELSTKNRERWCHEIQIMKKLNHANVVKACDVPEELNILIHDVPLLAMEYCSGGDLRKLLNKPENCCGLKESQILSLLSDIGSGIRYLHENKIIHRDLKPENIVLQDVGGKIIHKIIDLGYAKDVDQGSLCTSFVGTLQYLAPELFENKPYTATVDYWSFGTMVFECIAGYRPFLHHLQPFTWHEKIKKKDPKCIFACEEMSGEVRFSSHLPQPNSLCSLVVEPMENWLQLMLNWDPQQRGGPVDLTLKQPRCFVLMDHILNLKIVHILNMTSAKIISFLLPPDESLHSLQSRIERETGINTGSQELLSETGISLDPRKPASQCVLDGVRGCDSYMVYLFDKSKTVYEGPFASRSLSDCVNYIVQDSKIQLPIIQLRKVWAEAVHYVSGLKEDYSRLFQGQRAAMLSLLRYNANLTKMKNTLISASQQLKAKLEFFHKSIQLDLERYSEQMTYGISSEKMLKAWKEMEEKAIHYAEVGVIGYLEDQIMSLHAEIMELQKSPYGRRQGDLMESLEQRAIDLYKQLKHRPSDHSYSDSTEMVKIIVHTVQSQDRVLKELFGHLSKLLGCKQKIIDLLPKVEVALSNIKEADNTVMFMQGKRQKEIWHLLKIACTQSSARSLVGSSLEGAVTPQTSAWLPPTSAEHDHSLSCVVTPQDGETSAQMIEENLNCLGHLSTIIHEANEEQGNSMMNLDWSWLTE

[3] = biological target: T2, G1-IKKα, full-length wt IKKα fused to …; experiment: GPCA (Gaussia princeps protein complementation assay), G1-IKKα FL with G2-p100 constructs, NLR; settings: remark: other sources report otherwise
[4] = biological target: T3, G1-IKKα, full-length wt IKKα fused to the Gluc1 fragment (human) (UniProt O15111); experiment: GPCA
T3 sequence (looked up): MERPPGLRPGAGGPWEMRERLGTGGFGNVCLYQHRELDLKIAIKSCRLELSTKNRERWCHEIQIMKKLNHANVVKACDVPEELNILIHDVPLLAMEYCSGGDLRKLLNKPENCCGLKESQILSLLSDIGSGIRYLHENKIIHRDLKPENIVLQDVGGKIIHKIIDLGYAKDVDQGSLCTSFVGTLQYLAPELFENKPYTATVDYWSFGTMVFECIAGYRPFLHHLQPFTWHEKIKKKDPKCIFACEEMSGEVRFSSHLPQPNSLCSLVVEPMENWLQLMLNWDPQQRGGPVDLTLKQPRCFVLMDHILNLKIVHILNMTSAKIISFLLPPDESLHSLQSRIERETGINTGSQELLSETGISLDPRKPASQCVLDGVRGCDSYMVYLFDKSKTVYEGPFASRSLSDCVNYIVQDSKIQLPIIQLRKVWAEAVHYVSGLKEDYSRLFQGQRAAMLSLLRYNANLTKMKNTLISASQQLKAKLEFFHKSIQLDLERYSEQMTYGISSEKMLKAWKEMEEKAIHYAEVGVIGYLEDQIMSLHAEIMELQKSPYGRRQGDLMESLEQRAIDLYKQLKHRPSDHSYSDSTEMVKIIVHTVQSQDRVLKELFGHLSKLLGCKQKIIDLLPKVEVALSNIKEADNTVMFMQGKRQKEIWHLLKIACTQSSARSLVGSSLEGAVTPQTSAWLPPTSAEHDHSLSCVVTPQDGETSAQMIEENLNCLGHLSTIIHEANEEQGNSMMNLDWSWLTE

With “MBP-IκBα full-length (from UniProt P25963 1-317)” the binding [1] was “binds”.

B1: G2-p100 FL, Q00653 1-900 (protein, UniProt Q00653 1-900, looked up, not shown: large carriers)
chain: MESCYNPGLDGIIEYDDFKLNSSIVEPKEPAPETADGPYLVIVEQPKQRGFRFRYGCEGPSHGGLPGASSEKGRKTYPTVKICNYEGPAKIEVDLVTHSDPPRAHAHSLVGKQCSELGICAVSVGPKDMTAQFNNLGVLHVTKKNMMGTMIQKLQRQRLRSRPQGLTEAEQRELEQEAKELKKVMDLSIVRLRFSAFLRASDGSFSLPLKPVISQPIHDSKSPGASNLKISRMDKTAGSVRGGDEVYLLCDKVQKDDIEVRFYEDDENGWQAFGDFSPTDVHKQYAIVFRTPPYHKMKIERPVTVFLQLKRKRGGDVSDSKQFTYYPLVEDKEEVQRKRRKALPTFSQPFGGGSHMGGGSGGAAGGYGGAGGGGSLGFFPSSLAYSPYQSGAGPMGCYPGGGGGAQMAATVPSRDSGEEAAEPSAPSRTPQCEPQAPEMLQRAREYNARLFGLAQRSARALLDYGVTADARALLAGQRHLLTAQDENGDTPLHLAIIHGQTSVIEQIVYVIHHAQDLGVVNLTNHLHQTPLHLAVITGQTSVVSFLLRVGADPALLDRHGDSAMHLALRAGAGAPELLRALLQSGAPAVPQLLHMPDFEGLYPVHLAVRARSPECLDLLVDSGAEVEATERQGGRTALHLATEMEELGLVTHLVTKLRANVNARTFAGNTPLHLAAGLGYPTLTRLLLKAGADIHAENEEPLCPLPSPPTSDSDSDSEGPEKDTRSSFRGHTPLDLTCSTKVKTLLLNAAQNTMEPPLTPPSPAGPGLSLGDTALQNLEQLLDGPEAQGSWAELAERLGLRSLVDTYRQTTSPSGSLLRSYELAGGDLAGLLEALSDMGLEEGVRLLRGPETRDKLPSTAEVKEDSAYGSQSVEQEAEKLGPPPEPPGGLCHGHPQPQVH
B1 was tested, and the binding [2] was “binds” and the binding [3] was “binds”.

B2: full length IRF7 (GPCA construct) (protein, UniProt Q92985 1-503, looked up, not shown: large carriers)
chain: MALAPERAAPRVLFGEWLLGEISSGCYEGLQWLDEARTCFRVPWKHFARKDLSEADARIFKAWAVARGRWPPSSRGGGPPPEAETAERAGWKTNFRCALRSTRRFVMLRDNSGDPADPHKVYALSRELCWREGPGTDQTEAEAPAAVPPPQGGPPGPFLAHTHAGLQAPGPLPAPAGDKGDLLLQAVQQSCLADHLLTASWGADPVPTKAPGEGQEGLPLTGACAGGPGLPAGELYGWAVETTPSPGPQPAALTTGEAAAPESPHQAEPYLSPSPSACTAVQEPSPGALDVTIMYKGRTVLQKVVGHPSCTFLYGPPDPAVRATDPQQVAFPSPAELPDQKQLRYTEELLRHVAPGLHLELRGPQLWARRMGKCKVYWEVGGPPGSASPSTPACLLPRNCDTPIFDFRVFFQELVEFRARQRRGSPRYTIYLGFGQDLSAGRPKEKSLVLVKLEPWLCRVHLEGTQREGVSSLDSSSLSLCLSSANSLYDDIECFLMELEQPA
With B2 the binding [4] was “binds”.
